Data reported in paper PMC12394641.
No constants are given. Whether binding was seen depends on the method and setting. Binding seen in cells or lysates may run through a third protein. Some results given as binding are weak or reduced against the parent protein; the word gives no strength.

The chains behind the UniProt entries cited, without tags or fusion partners.
UniProt O43474: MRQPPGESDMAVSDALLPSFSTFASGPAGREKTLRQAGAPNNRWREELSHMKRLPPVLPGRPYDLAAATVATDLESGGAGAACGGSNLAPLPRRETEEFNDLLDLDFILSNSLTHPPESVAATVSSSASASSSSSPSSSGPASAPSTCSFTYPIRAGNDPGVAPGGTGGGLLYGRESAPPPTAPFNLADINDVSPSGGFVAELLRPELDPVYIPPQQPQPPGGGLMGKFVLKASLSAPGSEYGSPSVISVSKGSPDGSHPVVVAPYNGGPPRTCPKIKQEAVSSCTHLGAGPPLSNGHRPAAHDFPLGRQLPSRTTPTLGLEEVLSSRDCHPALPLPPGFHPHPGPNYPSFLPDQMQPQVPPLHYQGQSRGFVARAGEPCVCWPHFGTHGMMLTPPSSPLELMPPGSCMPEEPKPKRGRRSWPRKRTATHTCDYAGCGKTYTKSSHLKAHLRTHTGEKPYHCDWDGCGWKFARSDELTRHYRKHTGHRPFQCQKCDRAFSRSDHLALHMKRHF
UniProt Q12824: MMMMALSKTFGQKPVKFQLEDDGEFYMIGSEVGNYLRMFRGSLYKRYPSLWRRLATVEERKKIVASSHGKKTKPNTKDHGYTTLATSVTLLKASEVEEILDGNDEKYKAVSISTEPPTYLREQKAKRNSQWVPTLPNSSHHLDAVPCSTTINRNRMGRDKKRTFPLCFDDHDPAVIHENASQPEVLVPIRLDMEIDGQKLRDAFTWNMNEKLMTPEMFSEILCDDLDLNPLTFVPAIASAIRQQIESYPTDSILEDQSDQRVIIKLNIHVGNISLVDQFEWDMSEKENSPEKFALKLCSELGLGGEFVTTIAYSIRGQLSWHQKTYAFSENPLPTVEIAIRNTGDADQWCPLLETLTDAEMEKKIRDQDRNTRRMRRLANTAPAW
UniProt Q92922: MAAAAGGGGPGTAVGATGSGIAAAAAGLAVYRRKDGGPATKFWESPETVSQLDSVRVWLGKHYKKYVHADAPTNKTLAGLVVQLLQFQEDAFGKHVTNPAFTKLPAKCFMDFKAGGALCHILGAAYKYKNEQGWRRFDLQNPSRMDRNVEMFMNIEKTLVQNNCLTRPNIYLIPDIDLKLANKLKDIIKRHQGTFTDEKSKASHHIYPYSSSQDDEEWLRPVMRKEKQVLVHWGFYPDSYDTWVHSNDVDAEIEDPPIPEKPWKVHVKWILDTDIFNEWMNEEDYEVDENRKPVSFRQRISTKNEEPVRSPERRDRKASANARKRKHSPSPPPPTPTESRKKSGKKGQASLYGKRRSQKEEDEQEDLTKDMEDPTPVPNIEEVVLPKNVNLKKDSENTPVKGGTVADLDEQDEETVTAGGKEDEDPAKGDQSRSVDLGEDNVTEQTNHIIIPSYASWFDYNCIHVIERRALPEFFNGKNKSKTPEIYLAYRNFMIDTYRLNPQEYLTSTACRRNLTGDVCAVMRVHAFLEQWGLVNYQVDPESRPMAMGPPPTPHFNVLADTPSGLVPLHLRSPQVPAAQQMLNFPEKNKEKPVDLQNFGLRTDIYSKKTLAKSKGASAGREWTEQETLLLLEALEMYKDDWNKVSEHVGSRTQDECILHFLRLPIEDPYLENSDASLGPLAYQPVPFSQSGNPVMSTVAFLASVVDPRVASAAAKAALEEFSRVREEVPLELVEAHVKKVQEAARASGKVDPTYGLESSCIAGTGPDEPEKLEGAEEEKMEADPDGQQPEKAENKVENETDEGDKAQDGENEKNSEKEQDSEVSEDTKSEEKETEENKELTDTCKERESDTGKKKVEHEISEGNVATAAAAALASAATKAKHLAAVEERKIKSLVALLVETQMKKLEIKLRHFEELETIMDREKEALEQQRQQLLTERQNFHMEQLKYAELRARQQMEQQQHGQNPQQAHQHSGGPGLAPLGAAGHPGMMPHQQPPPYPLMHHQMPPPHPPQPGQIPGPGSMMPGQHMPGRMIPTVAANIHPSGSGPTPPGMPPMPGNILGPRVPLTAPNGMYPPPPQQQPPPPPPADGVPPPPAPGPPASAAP
UniProt Q9ULG1: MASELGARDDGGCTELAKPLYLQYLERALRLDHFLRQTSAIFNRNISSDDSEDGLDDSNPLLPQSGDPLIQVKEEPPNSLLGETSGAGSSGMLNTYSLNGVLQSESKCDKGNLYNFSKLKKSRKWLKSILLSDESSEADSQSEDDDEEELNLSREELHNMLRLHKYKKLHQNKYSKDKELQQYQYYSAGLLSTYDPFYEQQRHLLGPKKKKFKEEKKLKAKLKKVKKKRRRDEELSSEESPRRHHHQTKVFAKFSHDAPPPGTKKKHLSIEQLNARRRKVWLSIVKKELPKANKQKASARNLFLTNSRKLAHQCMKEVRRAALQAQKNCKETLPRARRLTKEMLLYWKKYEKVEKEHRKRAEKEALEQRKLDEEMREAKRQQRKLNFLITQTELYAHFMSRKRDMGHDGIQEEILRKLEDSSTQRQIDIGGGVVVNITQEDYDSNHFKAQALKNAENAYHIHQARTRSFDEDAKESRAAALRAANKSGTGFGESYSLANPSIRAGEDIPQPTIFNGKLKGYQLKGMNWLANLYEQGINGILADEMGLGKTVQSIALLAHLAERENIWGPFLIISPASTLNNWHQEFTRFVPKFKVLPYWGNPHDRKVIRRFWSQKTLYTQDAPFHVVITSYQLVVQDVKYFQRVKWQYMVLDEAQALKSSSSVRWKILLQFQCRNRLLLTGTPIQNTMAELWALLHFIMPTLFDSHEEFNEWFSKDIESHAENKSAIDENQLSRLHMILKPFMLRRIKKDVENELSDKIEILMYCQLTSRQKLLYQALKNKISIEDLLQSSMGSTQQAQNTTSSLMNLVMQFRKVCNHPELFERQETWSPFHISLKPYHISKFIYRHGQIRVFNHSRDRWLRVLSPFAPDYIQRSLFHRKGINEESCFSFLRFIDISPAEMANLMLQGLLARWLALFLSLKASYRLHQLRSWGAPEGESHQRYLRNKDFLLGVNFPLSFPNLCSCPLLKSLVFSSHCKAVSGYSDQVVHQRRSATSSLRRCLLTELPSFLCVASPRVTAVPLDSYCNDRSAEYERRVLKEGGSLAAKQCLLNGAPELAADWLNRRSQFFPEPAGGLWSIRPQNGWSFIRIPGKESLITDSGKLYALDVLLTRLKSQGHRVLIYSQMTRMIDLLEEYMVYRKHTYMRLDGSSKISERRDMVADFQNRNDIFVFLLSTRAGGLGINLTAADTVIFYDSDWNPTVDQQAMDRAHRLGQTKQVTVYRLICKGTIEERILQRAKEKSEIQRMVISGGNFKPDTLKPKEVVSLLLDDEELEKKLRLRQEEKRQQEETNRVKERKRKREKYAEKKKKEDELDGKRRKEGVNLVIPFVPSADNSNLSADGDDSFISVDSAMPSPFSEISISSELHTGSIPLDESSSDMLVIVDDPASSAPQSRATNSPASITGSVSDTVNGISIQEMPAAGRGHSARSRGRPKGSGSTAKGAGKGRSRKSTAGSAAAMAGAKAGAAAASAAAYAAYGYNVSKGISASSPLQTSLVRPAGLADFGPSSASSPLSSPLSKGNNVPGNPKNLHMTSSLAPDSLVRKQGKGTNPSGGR
UniProt O96019: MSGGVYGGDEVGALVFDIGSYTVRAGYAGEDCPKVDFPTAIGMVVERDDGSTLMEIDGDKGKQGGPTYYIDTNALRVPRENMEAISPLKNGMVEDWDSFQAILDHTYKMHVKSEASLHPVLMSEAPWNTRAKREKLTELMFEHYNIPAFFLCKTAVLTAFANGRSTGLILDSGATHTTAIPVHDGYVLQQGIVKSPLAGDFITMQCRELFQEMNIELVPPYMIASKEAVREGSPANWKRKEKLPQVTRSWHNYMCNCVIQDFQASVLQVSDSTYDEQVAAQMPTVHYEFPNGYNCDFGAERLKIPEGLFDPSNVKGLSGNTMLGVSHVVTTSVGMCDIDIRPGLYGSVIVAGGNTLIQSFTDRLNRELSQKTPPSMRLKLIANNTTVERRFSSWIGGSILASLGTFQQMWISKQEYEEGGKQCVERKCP
UniProt P51532: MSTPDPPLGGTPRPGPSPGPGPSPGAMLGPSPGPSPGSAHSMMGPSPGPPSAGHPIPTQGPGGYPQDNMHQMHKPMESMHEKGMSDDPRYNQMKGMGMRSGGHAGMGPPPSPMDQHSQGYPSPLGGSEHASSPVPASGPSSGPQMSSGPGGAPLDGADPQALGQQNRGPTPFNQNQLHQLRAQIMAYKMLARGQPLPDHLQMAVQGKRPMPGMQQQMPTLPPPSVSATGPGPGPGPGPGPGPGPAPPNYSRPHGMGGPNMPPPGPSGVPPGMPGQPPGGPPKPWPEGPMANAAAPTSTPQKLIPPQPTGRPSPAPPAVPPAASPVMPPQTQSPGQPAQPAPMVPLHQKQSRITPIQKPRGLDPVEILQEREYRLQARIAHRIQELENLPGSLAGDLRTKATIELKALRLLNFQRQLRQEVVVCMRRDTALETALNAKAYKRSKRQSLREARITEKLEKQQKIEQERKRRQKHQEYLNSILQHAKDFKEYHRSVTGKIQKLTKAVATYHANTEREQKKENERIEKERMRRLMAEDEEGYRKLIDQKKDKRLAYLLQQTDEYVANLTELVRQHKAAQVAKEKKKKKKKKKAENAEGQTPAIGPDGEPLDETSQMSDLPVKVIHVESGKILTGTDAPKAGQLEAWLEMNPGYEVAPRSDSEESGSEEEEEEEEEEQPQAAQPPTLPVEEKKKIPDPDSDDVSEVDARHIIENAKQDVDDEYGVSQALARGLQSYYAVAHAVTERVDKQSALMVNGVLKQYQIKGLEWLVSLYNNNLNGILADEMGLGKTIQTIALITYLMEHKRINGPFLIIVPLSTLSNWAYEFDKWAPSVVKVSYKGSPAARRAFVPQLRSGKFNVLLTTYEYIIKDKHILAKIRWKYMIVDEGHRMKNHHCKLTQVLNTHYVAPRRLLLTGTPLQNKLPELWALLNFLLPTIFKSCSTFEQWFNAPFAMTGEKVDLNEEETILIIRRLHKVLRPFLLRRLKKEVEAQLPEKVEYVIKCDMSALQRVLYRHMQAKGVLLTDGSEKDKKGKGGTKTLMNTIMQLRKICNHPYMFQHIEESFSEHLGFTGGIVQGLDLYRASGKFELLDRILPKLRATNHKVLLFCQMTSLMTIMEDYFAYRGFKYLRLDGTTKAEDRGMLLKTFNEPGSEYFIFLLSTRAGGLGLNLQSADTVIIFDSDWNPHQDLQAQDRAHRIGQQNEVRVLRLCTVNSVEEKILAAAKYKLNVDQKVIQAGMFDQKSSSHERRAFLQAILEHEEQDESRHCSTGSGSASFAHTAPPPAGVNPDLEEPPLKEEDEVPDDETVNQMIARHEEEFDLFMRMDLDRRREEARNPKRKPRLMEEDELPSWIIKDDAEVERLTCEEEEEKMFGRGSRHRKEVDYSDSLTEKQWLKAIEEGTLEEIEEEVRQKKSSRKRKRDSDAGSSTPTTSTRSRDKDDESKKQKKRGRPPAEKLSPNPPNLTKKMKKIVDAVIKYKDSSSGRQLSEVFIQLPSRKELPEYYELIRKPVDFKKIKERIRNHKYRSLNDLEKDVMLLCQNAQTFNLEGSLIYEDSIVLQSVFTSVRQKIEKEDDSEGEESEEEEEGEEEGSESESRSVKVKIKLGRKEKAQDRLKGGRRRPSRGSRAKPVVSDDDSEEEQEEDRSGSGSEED
UniProt Q15532: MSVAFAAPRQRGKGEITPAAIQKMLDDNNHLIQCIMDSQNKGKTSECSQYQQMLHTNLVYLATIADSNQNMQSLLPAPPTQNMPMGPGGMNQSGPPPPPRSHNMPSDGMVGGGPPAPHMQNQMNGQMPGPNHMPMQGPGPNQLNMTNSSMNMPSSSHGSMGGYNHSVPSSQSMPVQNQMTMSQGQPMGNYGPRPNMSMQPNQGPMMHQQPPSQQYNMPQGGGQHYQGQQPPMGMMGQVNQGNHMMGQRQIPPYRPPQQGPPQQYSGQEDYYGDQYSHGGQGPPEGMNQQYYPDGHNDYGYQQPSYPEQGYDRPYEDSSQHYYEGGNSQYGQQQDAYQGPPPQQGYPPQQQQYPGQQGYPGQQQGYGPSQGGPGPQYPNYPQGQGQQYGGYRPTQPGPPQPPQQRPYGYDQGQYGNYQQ
UniProt P25490: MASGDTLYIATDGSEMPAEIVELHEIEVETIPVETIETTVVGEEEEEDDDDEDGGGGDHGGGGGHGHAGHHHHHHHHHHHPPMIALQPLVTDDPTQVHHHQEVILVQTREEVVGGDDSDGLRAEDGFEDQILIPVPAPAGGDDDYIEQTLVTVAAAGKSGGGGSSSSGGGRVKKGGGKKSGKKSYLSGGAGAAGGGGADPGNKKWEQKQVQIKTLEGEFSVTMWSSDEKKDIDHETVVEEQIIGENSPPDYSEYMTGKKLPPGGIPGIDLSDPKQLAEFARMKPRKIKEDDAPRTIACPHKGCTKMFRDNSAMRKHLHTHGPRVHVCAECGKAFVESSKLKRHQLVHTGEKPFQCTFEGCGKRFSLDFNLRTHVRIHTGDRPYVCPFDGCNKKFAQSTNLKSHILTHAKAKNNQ

Key:
Test in all cases: co-IP; endogenous proteins in whole-cell extracts of HCT116 cells (basal, or transduced with sgCtrl or sgACTL6A; KLF4 IP also in LS174T and LoVo); antibodies against SMARCB1, SMARCC1, INO80 or KLF4 (5-10 ug) on Dynabeads overnight at 4 C; lysis and wash buffer 50 mM Tris-HCl pH 7.5, 150 mM NaCl, 1% NP-40, 0.1% Na-deoxycholate; Western blotting
[1] = biological target: KLF4 (human (endogenous in HCT116, LS174T, LoVo)) (UniProt O43474)
[2] = biological target: SMARCB1 (human (endogenous in HCT116)) (UniProt Q12824)
[3] = biological target: SMARCC1 (human (endogenous in HCT116)) (UniProt Q92922)
[4] = biological target: INO80 (human (endogenous in HCT116)) (UniProt Q9ULG1)

binding [1] | binding [2] | binding [3] | binding [4] | Substance
binds | binds | binds | – | ACTL6A (from UniProt O96019 1-429)
binds | binds | – | no binding | SMARCA4 (from UniProt P51532 1-1647)

The remaining lines, values behind:

Substance | binding [1] | binding [2] | binding [3] | binding [4]
SMARCB1 (from UniProt Q12824 1-385) | binds | – | – | no binding
SMARCC1 (from UniProt Q92922 1-1105) | binds | – | – | no binding
SS18 (from UniProt Q15532 1-418) | – | – | binds | no binding
YY1 (from UniProt P25490 1-414) | – | no binding | no binding | –
